Results are given in words; binding and its absence hold for the method and conditions named. In cells and extracts the contact can be indirect. Here binding means that the protein was enriched with, or labelled near, the bait; the list need not be complete. For some of these results: A no says only that the protein was not detected with the bait. Sequences can lack the tags named with a protein.

Amino acid sequences for entries named in this document (tags omitted). A change or cut given only in a name is not applied to a line headed by its entry.
UniProt Q9LZ30: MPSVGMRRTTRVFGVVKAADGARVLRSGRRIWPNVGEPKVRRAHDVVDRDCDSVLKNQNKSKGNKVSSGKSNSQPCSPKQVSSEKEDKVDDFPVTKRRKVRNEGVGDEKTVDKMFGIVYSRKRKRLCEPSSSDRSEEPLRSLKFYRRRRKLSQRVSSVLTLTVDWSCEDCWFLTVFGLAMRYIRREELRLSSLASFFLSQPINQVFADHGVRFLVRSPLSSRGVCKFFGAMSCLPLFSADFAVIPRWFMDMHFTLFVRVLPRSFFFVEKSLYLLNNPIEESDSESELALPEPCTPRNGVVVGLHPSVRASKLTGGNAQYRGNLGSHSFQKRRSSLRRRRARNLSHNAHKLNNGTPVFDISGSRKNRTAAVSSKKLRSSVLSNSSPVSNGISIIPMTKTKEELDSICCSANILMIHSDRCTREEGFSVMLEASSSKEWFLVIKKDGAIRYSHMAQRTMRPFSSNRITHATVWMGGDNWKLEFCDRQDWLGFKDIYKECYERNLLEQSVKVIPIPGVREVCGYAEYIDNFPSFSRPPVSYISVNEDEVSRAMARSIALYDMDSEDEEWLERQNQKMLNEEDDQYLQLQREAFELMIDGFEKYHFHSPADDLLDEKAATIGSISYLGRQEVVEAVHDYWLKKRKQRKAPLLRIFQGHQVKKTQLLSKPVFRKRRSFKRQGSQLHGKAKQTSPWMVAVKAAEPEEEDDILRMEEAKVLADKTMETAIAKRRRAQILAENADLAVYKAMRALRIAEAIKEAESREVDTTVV
UniProt F4IPJ1: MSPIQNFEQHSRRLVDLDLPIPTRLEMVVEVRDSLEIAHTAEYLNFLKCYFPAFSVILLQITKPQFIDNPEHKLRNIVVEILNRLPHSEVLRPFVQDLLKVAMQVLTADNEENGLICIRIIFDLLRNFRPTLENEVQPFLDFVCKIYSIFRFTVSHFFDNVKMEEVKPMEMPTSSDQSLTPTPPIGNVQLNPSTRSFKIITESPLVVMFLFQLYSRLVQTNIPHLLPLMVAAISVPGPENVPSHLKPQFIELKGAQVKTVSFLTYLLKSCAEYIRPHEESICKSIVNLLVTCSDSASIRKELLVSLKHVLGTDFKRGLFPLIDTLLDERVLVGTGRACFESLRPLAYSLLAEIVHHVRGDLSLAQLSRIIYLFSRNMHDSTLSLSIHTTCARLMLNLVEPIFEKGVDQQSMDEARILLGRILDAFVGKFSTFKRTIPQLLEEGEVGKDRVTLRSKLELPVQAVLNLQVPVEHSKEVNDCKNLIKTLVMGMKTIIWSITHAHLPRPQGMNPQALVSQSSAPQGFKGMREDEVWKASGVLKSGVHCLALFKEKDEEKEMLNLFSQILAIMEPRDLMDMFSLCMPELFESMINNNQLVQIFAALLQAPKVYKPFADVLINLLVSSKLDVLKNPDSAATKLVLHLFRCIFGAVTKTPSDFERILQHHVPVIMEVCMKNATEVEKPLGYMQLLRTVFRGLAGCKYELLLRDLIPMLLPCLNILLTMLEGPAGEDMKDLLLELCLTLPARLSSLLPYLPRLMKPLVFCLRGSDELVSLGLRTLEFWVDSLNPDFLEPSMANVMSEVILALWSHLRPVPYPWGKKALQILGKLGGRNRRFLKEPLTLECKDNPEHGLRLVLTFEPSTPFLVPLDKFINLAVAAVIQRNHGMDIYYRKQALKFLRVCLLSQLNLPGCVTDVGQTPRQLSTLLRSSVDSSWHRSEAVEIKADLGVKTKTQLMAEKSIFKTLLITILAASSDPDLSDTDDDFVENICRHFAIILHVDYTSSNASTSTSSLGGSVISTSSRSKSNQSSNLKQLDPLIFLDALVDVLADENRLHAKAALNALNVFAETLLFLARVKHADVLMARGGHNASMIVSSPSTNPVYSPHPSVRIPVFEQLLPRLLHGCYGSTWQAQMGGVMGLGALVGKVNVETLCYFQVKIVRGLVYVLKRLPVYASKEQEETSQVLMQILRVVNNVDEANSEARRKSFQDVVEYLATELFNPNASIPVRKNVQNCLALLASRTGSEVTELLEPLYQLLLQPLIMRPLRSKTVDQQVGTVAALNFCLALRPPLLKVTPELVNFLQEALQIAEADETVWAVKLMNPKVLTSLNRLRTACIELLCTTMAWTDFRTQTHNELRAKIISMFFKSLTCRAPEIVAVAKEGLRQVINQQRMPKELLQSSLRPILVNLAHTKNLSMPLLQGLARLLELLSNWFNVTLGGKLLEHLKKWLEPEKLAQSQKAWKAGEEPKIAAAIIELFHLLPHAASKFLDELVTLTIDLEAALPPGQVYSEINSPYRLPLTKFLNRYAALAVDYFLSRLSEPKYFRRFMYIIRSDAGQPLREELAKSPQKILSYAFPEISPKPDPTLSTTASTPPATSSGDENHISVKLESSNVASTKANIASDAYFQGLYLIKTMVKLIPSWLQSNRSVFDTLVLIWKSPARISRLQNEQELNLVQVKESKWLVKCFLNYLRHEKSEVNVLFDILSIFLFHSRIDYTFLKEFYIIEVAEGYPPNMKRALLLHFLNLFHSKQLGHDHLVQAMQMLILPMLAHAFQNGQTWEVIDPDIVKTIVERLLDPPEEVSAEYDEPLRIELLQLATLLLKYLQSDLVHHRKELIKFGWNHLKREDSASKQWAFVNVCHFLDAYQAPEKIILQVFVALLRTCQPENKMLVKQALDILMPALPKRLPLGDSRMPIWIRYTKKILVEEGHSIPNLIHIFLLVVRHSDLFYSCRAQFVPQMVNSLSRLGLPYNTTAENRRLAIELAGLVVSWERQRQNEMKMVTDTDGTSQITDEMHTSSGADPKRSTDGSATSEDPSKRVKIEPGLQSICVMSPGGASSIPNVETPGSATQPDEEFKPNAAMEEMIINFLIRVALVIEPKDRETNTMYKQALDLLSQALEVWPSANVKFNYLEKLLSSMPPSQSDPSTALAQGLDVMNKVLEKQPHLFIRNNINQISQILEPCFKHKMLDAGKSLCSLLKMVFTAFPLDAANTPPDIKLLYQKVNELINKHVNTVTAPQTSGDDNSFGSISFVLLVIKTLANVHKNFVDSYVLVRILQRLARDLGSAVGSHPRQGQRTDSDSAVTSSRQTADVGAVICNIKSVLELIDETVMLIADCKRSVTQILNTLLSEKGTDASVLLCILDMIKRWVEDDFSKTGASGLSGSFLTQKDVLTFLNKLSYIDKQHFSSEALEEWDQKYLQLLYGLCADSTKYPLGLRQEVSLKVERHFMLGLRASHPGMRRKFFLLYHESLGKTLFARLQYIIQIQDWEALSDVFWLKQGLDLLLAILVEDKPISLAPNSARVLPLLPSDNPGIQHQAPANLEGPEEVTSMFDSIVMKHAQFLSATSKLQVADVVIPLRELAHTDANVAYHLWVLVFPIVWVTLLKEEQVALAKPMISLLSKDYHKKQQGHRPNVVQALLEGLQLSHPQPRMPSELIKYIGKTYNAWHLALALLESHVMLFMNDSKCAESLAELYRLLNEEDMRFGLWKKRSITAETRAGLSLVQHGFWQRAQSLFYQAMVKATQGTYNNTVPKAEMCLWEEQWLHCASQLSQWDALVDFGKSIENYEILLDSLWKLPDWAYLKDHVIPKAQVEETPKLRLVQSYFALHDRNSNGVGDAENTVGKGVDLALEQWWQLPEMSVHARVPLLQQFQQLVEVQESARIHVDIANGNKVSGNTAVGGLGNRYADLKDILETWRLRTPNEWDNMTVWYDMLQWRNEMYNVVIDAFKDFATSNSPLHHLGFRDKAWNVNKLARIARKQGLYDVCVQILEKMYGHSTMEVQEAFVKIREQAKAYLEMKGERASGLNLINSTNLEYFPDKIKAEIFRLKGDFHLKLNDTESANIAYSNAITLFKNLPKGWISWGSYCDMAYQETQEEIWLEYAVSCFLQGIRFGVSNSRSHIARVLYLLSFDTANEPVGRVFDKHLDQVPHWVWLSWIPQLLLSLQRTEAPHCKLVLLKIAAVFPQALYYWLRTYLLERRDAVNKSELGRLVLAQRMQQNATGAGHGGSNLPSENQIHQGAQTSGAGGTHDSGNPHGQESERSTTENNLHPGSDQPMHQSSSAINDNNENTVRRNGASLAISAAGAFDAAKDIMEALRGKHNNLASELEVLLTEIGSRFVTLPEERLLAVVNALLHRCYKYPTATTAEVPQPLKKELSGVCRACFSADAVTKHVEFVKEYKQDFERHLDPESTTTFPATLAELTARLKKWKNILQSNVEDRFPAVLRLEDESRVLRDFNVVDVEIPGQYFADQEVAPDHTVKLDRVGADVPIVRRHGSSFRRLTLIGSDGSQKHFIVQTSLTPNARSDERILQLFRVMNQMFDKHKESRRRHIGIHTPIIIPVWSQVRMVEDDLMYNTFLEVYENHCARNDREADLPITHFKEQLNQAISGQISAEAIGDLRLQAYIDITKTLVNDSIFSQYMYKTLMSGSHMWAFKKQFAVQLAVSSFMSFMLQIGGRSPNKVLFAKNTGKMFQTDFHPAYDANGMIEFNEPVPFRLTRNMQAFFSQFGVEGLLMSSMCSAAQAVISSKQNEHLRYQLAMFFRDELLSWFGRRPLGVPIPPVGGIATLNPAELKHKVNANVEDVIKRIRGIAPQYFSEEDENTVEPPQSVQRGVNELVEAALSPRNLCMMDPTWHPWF

The target of assay [1] is T1, TELOMERE REPEAT BINDING FACTOR 3 (TRB3) fused to YFP, expressed under the Cauliflower Mosaic Virus 35S promoter (Arabidopsis thaliana) (UniProt Q9M2X3).
T1 sequence: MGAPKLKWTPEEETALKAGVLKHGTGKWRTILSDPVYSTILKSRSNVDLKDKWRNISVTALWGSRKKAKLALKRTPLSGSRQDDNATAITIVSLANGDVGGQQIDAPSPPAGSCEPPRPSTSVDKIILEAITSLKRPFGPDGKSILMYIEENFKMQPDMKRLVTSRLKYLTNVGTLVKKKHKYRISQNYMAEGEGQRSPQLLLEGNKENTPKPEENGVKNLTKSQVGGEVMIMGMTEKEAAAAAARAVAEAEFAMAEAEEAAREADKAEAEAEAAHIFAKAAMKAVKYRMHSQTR
The experiment in a line: affinity purification with mass spectrometry; GFP-trap agarose beads on nuclear extracts of transgenic plants expressing 35Sp-TRB1 or 35Sp-TRB3 fused to YFP/GFP; 35Sp-EDS1 fusion as background control; extracts treated with DNase I and RNase A; 20 mM Tris-HCl pH 7.4, 150 mM NaCl, 0.1% Triton X-100, 2 mM EDTA, 4°C, 2.5 h; biological triplicates; label-free quantification, ANOVA with HSD, FDR < 0.05.

In assay [2] the target is T2, TELOMERE REPEAT BINDING FACTOR 1 (TRB1) fused to YFP, expressed under the Cauliflower Mosaic Virus 35S promoter (Arabidopsis thaliana) (UniProt Q8VWK4).
T2 sequence: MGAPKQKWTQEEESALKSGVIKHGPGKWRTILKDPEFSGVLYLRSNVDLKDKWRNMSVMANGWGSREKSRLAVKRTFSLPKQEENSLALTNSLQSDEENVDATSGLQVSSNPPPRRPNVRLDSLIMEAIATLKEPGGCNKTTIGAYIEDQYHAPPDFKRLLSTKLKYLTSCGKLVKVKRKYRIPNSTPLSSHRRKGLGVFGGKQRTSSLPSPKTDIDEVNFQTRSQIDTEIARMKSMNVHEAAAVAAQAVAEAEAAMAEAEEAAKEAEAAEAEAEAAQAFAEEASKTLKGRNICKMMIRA
Described as above.

For EPCR1 (PEAT complex component), the binding entry is recorded as “no binding” in assay [1] and “binds” in assay [2].
For the substance “EPCR2 (PEAT complex component) (from UniProt Q9LZ30)”, the binding entry in assay [2] was “binds”.
Regarding NAC52, the binding entry in assay [1] and in assay [2] was “binds” throughout.
For “TRA1A (NuA4 complex component) (from UniProt F4IPJ1)”, the binding result in assay [1] and in assay [2] was “binds” each time.

The record behind these values is article PMC13132431.
